Assay results: PMC10163288
Some of the results follow.

B1: il10ra_site1_sap_24_mot_HHH_b1_01754_af2_000000279_0001_1_18_H_._HHH_b1_03088_af2_0001_0000600018_0000002_0_0001 (protein)
chain: SSSSDEEVEELLEEAREAAEEGDPERAIRLVLEALRLAIQARDPELLQAVWELVREIAELLSSSS
B2: il10ra_site1_normal_mot_HHH_b2_03220_af2_000000223_0001_23_40_H_._HHH_b2_01017_0001_0000100015_0000001_0_af2pred_0001 (protein)
chain: SSSSSSSKANEEILRLIREALEIDDEEEARKVLERAEELAEENNNEELLRIIRLLLKELSSSSSS
B3: il10ra_site1_sap_18_mot_HHH_b1_06914_000000280_0001_1_18_H_._HHH_b1_03095_af2_0001_0000200010_0000001_0_0001 (protein)
chain: SSSSSDDEEYERVLELLRRAARIDDEEEVEKLLEEAEELAKELGNRVLLLAIRRFRELLESSSSS
B4: il10ra_site1_normal_mot_HHH_b1_05329_000000008_0001_43_56_H_._HHH_b1_07352_0001_0000400047_0000001_0 (protein)
chain: SSSSDEFLRIIIEAFELATRLRDEETSHELWRLAMEYAREGDEKYRERLEELLEELEERLSSSSS
B5: il10ra_site1_normal_mot_HHH_b1_01821_000000158_0001_23_39_H_._HHH_b1_01350_af2_0001_0000300008_0000001_0 (protein)
chain: SSSSSSDEEREEAEELLEEAKHVEDPERFIELILEAVRLALRSGDEELLQEIWELFKRKSSSSSS
B6: il10ra_site1_normal_mot_3de50db98b9681956f4e62bdf409e650_0001_af2_000000052_0001_35_49_H_._HHH_b2_01222_0001_0000100001_0000002_0 (protein)
chain: SSSSSEEFLEKVLRLLLRAARLLLRGNPEEAEELLEEAERLAKEGNNPQAEEVVRHFKEVQSSSS
B7: il10ra_site1_sap_23_mot_HHH_b1_02062_000000185_0001_1_20_H_._HHH_b1_00494_0001_0000100012_0000002_0_0001 (protein)
chain: SSSSDYEEALRWLEESLQLAEELNDPEYIRNAARFLLQLAEQANDERIFEEAERILEEVNSSSSS
B8: il10ra_site1_sap_19_mot_HHH_b2_02567_af2_000000093_0001_41_57_H_._HHH_b2_04968_af2_0001_0000600030_0000002_0_0001 (protein)
chain: SSSSSDAEERVEELLEEAEQVEDEHEFAQILFEAMRLAHENNDQELFKEILRVAAELLDSSSSSS
B9: il10ra_site1_normal_mot_HHH_b1_05357_000000034_0001_23_39_H_._HHH_b2_06427_0001_0000400012_0000001_0_af2pred_0001 (protein)
chain: SSSSSSDVEEEVEELLEEAKQIDDQEEAAYLLTRAYALANQLNDPELEEEVRRVAKELSSSSSSS
B10: il10ra_site1_normal_mot_HHH_b1_05326_000000242_0001_1_20_H_._HHH_b2_01301_0001_0000200014_0000001_0 (protein)
chain: SSSSDEELQQVLELSREAFRLALRGNEEEARRVAEEALRLAEEAGDEQLFRVIEDQLRVRSSSSS
B11: il10ra_site1_sap_21_mot_HHH_b1_03314_af2_000000278_0001_42_55_H_._HHH_b1_07761_af2_0001_0000300012_0000001_0_0001_af2pred_0001 (protein)
chain: SSSSDIRERVLRLIREILELLRRGNEEEARELLEEAQELAEEGNNPLLRRSLEALERDLNSSSSS
B12: il10ra_site1_sap_19_mot_HHH_b2_03220_af2_000000223_0001_23_40_H_._HHH_b2_08011_af2_0001_0000900026_0000002_0_0001 (protein)
chain: SSSSDEEYLEMAIRFAEWLAEAGDPEAAERMIEAAIDLAKQLGDEELEEELRELLEELRRESSSS
B13: il10ra_site1_sap_11_mot_HHH_b1_05757_000000171_0001_42_57_H_._HHH_b1_08742_af2_0001_0000300003_0000001_0_0001_af2pred_0001 (protein)
chain: SSSSSEDEERASRLMREVLEALQRGDEERLEELLKELEELAEENNDELVKRYVETIKQMNSSSSS
B14: il10ra_site1_normal_mot_HHH_b2_01649_af2_000000191_0001_40_56_H_._HHH_b2_05814_0001_0000400020_0000001_0_af2pred_0001 (protein)
chain: SSSSSIKIAARFLLRDARAATTEELRKQVKYAIEALLELVERLNDEEAHEILKEAEELLRSSSSS
B15: il10ra_site1_sap_20_mot_HHH_b1_06804_000000054_0001_40_54_H_._HHH_b1_05559_0001_0000800044_0000001_0_0001 (protein)
chain: SSSSQERFEEAERVIEQVIRLLEEGNPEEARRLIEELEELAEELNDIALRSAVEALKRSVDSSSS
B16: il10ra_site1_normal_mot_HHH_b2_05813_000000266_0001_1_19_H_._HHH_b1_05552_af2_0001_0000600041_0000001_0 (protein)
chain: SSSSSELEEEFFQIAVEIQRLLDENDHEEAEKLVKELIEELERLNNERLLFAAEALERRIKSSSS
B17: il10ra_site1_normal_mot_HHH_b2_00277_af2_000000172_0001_1_17_H_._HHH_b2_06595_0001_0000300022_0000002_0 (protein)
chain: SSSSSDVEEEIEELLEEAKRIEDPEEAKEVILRAAALAARLRDPHLSFLVIEVYAELFQRSSSSS
B18: il10ra_site1_sap_21_mot_HHH_b1_05056_000000217_0001_1_20_H_._HHH_b1_07511_0001_0000400017_0000001_0_0001 (protein)
chain: SSSSTAAEFLLRQALEAAELLLEQGDEEKAEWALEIVERLAKEANDPEALRLAEELLEELSSSSS
B19: il10ra_site1_sap_24_mot_HHH_b2_04186_af2_000000278_0001_1_19_H_._HHH_b1_07341_af2_0001_0000600024_0000001_0_0001 (protein)
chain: SSSSDEEELERLLEEIEQAVEEGDREKFARLVLELLRLIYELGDKEMLRRLWELIKKFAEGSSSS
B20: il10ra_site1_normal_mot_HHH_b1_04065_000000255_0001_41_56_H_._HHH_b1_07236_0001_0000100003_0000001_1 (protein)
chain: SSSSDEEYRREVEELLEEAEQIEDPHERAEVLARALRRAYEGRDPELFRLVDRVAIELYFSSSSS
B21: il10ra_site1_sap_27_mot_HHH_b1_05056_000000217_0001_1_20_H_._HHH_b2_06141_0001_0000500014_0000001_0_0001 (protein)
chain: SSSSDLVEQAARFARALARAAGDEEAEEKVQEVEEALERGEISEQEALELLARIMREINKSSSSS
B22: il10ra_site1_normal_mot_HHH_b1_05056_000000217_0001_1_20_H_._HHH_b2_06393_af2_0001_0000900018_0000001_0 (protein)
chain: SSSSSDEEDEERVEELLEEAKHVPDPHEVSRILAEALRLAFELQDPELLRAVWEVVRELNSSSSS
B23: il10ra_site1_sap_24_mot_42f8b9a235e54c912819b8ab3aebd5a2_0001_af2_000000295_0001_34_48_H_._104f9518c2e4434ea70fdb64017d7000_0001_af2_0001_0000500026_0000001_0_0 … (protein)
chain: SSSSDEERLEELLERAEELLKEGNPEEAREVLYEATHLALQLSDKEVLRELWKLFREVAGSSSSS
B24: il10ra_site1_normal_mot_HHH_b2_02337_000000026_0001_38_52_H_._HHH_b2_04211_af2_0001_0000300011_0000002_0 (protein)
chain: SSSSDEEREEIEELIKEFEELLERGDREEAVRVVTEALQFALKLGDQELLKRIWELVKSLSSSSS

molecular target: il10ra, Q13651; assay: yeast display titration

Apparent Kd, inactive:
B1 no binding seen, B2 no binding seen, B3 no binding seen, B4 no binding seen, B5 no binding seen, B6 no binding seen, B7 no binding seen, B8 no binding seen, B9 no binding seen, B10 no binding seen, B11 no binding seen, B12 no binding seen, B13 no binding seen, B14 no binding seen, B15 no binding seen, B16 no binding seen, B17 no binding seen, B18 no binding seen, B19 no binding seen, B20 no binding seen, B21 no binding seen, B22 no binding seen, B23 no binding seen, B24 no binding seen
